# According to PubChem BioAssay AID1347421 (Sanford-Burnham Center for Chemical Genomics, 2020):
# By UniProt entry, the sequences of proteins in these tests, tags left out. Where a name states a change or a piece, a line headed by the entry shows the natural chain unless it says otherwise.
# UniProt O00391: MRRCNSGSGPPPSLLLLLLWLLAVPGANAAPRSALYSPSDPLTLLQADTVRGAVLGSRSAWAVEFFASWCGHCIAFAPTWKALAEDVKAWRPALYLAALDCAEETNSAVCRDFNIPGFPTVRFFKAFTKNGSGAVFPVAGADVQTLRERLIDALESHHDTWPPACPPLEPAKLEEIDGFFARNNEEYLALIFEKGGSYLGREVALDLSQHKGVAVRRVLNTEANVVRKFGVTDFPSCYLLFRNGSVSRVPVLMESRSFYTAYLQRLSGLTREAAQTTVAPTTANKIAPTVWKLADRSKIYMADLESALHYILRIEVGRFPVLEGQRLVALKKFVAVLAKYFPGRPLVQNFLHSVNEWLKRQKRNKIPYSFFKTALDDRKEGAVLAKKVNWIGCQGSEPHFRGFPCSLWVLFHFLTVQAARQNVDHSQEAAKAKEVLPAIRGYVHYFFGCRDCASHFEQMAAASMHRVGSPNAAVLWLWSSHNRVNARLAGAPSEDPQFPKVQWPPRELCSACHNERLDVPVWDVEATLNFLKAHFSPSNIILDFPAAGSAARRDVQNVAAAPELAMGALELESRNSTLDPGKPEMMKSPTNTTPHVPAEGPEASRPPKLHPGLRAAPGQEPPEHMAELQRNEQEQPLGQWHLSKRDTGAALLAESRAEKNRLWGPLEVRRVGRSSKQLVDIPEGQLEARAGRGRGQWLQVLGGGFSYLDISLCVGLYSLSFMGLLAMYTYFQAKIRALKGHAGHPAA
# The full ranking holds about 1,500 compounds; the median of “activity” is about 2, and the lowest 2% start at about -18. The list shows a part of the results. Activity calls are given as the source filed them.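 Rule for the calls: active = inhibition of at least 40% at 10 µM; inconclusive = no clear call, values can overlap the other calls; inactive = the rest.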
# Target: Sulfhydryl oxidase 1 (Homo sapiens) (UniProt O00391)
# Assay: QSOX1 enzyme inhibitors, confirmation, biochemical, ROS-Glo luminescence, single concentration (AID 1347421);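 note: 0% = DMSO wells with enzyme and 100% = wells lacking QSOX1 enzyme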
# Conditions: recombinant hQSOX1, RNase A substrate, ROS-Glo H2O2 luminescence; at 10 µM
row,Compound,activity
1,COc1cccc(CNCCCSC)c1OCC(O)CN1CCOCC1 (centres undefined),2.5%
2,CN(Cc1ccccc1)C1CCCN(C2CCC2)C1 (centres undefined),1%
3,Cc1ccc(S(=O)(=O)N2CCCCCC2)cc1C(=O)NC(C)C,inactive: -15.8%
4,Cc1ccc(CN(C)CC2(O)CCCN(Cc3ccccc3F)C2=O)cc1 (centres undefined),4.8%
5,O=C(CCc1nnc(-c2ccc3c(c2)OCO3)o1)NCC1CC12CCCCC2 (centres undefined),inactive: 0%
6,c1cc(CN2CCc3[nH]nc(-c4ccc5c(c4)OCO5)c3C2)co1,3.8%
7,COc1cc(CNCc2cnc(C)cn2)ccc1OCC(O)CN1CCCC1 (centres undefined),3.7%
8,COc1ccccc1CN1CC(C(=O)N(C)CCC2CCOCC2)CCC1=O (centres undefined),9.3%
9,CC(C)(C)CN1CC(NC(=O)C2CCOCC2)CC1=O (centres undefined),12.4%
10,CC(C)(C)CN1CCCC2(CCN(CCCn3cccn3)C2)C1=O (centres undefined),5.1%
11,COc1ccc(OCC(O)CN2CCC(O)CC2)c(CNCCSC)c1 (centres undefined),8.1%
12,Cc1nc(CNC(=O)CC2C(=O)NCCN2Cc2cccc(F)c2F)cs1 (centres undefined),5.5%
13,Cc1cccc(S(=O)(=O)NCC2CCN(c3cnn(C)c(=O)c3)C2)c1 (centres undefined),5.8%
14,CCS(=O)(=O)c1ncc(CN(C)CC(O)c2ccccc2)n1Cc1ccccc1 (centres undefined),6.9%
15,CCN(Cc1ccncc1)C1CCCN(S(=O)(=O)c2cc(C)c(Cl)cc2C)C1 (centres undefined),2.3%
16,CCOc1ccc(CN2CC[C@@H](N3CCCCCC3)[C@H](O)C2)cc1Cl,6.1%
17,CN1CCN([C@@H]2CCN(Cc3ccc(OC4CCCC4)cc3)C[C@H]2O)CC1,3.5%
18,COc1cccc(-c2ccc(NC(=O)C3CCCN(C(=O)CNC(C)=O)C3)cc2)c1 (centres undefined),10.2%
19,COc1ccccc1C(=O)Nc1cccc(-c2cn3ccsc3n2)c1,1.8%
20,Cc1cc(Cl)ccc1NC(=S)NCc1cccnc1,5.1%
21,CN(CC1CCCN(CCc2ccc(F)cc2)C1)C(=O)CCCn1cncn1 (centres undefined),3.3%
22,COc1ccc(N2CCN(C3CCCN(Cc4nc5ccccc5nc4C)C3)CC2)cc1 (centres undefined),7.9%

row,Compound,activity
1,O=C(c1ccc(Oc2ccccc2)cc1)C1CCCN(C(=O)CCn2cncn2)C1 (centres undefined),5.3%
2,CCC1c2cccn2CCN1Cc1cn[nH]c1-c1cc(OC)c(OC)c(OC)c1 (centres undefined),inactive: -2.5%
3,CC(C)NC(=O)c1ccoc1COc1ccccc1,0.9%
4,OC(COc1ccccc1CNCCN1CCCC1)CN1CCSCC1 (centres undefined),7.1%
5,Cc1cnn(Cc2ccc(F)cc2)c1NC(=O)Cn1nnc(C(C)(C)C)n1,1.9%
6,CC(=O)c1ccc(N2CCN(c3nncc(-c4cccc(F)c4)n3)CC2)cc1,39.1%
7,COCC(=O)Nc1ccc(S(=O)(=O)N2CCCC(C)C2)cc1 (centres undefined),7.5%
8,O=C(NCc1ccoc1)c1ccc(C2CCCN2Cc2cc[nH]c(=O)c2)s1 (centres undefined),inactive: -4.3%
9,COc1cccc(CC2CN(Cc3cnc(N(C)C)s3)CCO2)c1 (centres undefined),inactive: -3.2%
10,CCc1ccccc1NC(=O)Nc1ccc(OC)cc1OC,8.2%
11,COc1ccc(OCC(O)CN2CCC(O)CC2)c(CNCC2CCOCC2)c1 (centres undefined),7.5%
12,COc1cccc(NC(=O)CCC2CCN(C(=O)C3CC=CCC3)CC2)c1 (centres undefined),5%
13,COc1ccc(N2C(=O)CC(N3CCOCC3)C2=O)cc1Cl (centres undefined),inactive: -16.6%
14,Cc1oc(-c2ccc(F)cc2)nc1CN(CCO)Cc1cccs1,1.4%
15,Cc1ccc(S(=O)(=O)N2CCN(c3ccccc3)CC2)cc1C(N)=O,1.7%
16,OC1CCN([C@@H]2CCN(CC3CCCCC3)C[C@H]2O)CC1,2.5%
17,CCCCC(=O)Nc1cccc2nc(C)ccc12,inactive: -14.5%
18,O=C(c1ccco1)N1CCc2onc(-c3ccc(C(F)(F)F)cc3)c2C1,4.9%
19,COc1cc(CNCc2cnn(C)c2)ccc1OCC(O)CN1CCSCC1 (centres undefined),inactive: 0%
20,CN(C)c1nc2nonc2nc1NCc1cccc2[nH]ccc12,inactive: 0%
21,CSCCCN1CC[C@@H](N2CCN(c3ccccc3F)CC2)[C@H](O)C1,4.2%
22,CC(C)c1nc(C(=O)N2CCOC(Cc3ccccc3)C2)cs1 (centres undefined),5.5%

row,Compound,activity
1,c1ccc(-c2noc(CN3CCN(Cc4ccc5c(c4)OCO5)CC3)n2)cc1,7.5%
2,O=C(c1nc2ccc(Cl)cn2c1CN1CCCC(O)C1)N1CCCCCCC1 (centres undefined),7.7%
3,CSc1ncc(CNC2CCCN(CCCc3ccccc3)C2)cn1 (centres undefined),6%
4,O=C(c1cccc(-c2nnc(-c3ccccc3)o2)c1)N1CCN(C(=O)c2ccco2)CC1,inactive: -3.9%
5,O=C(c1ccoc1)N1CCC2(CCCN(Cc3cccc(F)c3F)C2)C1 (centres undefined),3.7%
6,CN(CC1CCCN1C)C(=O)Cn1nnnc1CN1CCCCCC1 (centres undefined),10.8%
7,Fc1cccc(C2(CN3CCN(CCn4ccnc4)CC3)CCOC2)c1 (centres undefined),1.2%
8,CCC1CCCCN1S(=O)(=O)c1ccc(NS(C)(=O)=O)cc1 (centres undefined),inactive: -12.3%
9,CCC(=O)Oc1ccc(-c2nc(-c3cccc(OC)c3)no2)cc1,active: 86.9%
10,COc1ccc(CC2CN(Cc3ccco3)CCO2)cc1 (centres undefined),1.8%
11,CN(C)C(=O)Nc1ccc2c(c1)CCC2,inactive: -6.3%
12,OCCC1CN(Cc2ccncc2)CCN1CC1CCCCC1 (centres undefined),3.1%
13,O=C(CCC1CCN(C(=O)CSc2ccccc2)CC1)NCc1cccnc1,4.2%
14,COc1ccc(CN(C)Cc2csc(C)n2)c(OCC(O)CN2CCCC2)c1 (centres undefined),3.2%
15,CN(Cc1cccc(OCC(O)CN(C)C2CCCCC2)c1)Cc1ccno1 (centres undefined),0.2%
16,COc1ccc(CC2CN(C(=O)CCc3csc(N)n3)CCO2)cc1 (centres undefined),0.6%
17,O=C1CC(NCc2cccc3c2OCO3)CN1Cc1ccccc1C(F)(F)F (centres undefined),5.2%
18,CN(Cc1nccn1C)C1CCCN(CCCc2ccccc2)C1 (centres undefined),2.7%
19,Cc1nn2cc(CNCc3cccc(OCC(O)CN4CCOCC4)c3)nc2s1 (centres undefined),inactive: -1.8%
20,Cn1cc(CCNCc2cccc(OCC(O)CN3CCOCC3)c2)cn1 (centres undefined),2.3%
21,O=C1N(CC2CCCCC2)CCCC12CCN(C1CCSCC1)C2 (centres undefined),1.8%
22,O=C1CCC(C(=O)N2CCCCO2)CN1CCCN1CCOCC1 (centres undefined),6.6%

# 5 compounds already listed, ordered by number of heavy atoms, falling.
row,Compound,activity
4,O=C(c1cccc(-c2nnc(-c3ccccc3)o2)c1)N1CCN(C(=O)c2ccco2)CC1,inactive: -3.9%
15,CN(Cc1cccc(OCC(O)CN(C)C2CCCCC2)c1)Cc1ccno1 (centres undefined),0.2%
7,Fc1cccc(C2(CN3CCN(CCn4ccnc4)CC3)CCOC2)c1 (centres undefined),1.2%
3,CSc1ncc(CNC2CCCN(CCCc3ccccc3)C2)cn1 (centres undefined),6%
11,CN(C)C(=O)Nc1ccc2c(c1)CCC2,inactive: -6.3%

# Part of the list above, reformatted.
row	Compound	activity
2	CCC1c2cccn2CCN1Cc1cn[nH]c1-c1cc(OC)c(OC)c(OC)c1 (centres undefined)	inactive: -2.5%
3	CC(C)NC(=O)c1ccoc1COc1ccccc1	0.9%

# Next part

row,Compound,activity
1,CSc1ncc(Cl)c(C(=O)NCCN2CCOCC2)n1,inactive: -13.1%
2,OC(COc1ccccc1CNCCOc1cccnc1)CN1CCSCC1 (centres undefined),inactive: -3.8%
3,O=C(CCN1CCCO1)N1CCOC(CCc2ccccc2)C1 (centres undefined),inactive: -2.8%
4,COc1ccc(NC(=O)c2ccc3c(c2)NC(=O)CO3)cc1OC,2.1%
5,COc1cccc(CN2CCCC3(CCN(Cc4ccccn4)C3)C2)c1OC (centres undefined),7.4%
6,O=C(O)c1ccc(S(=O)(=O)N2CCN(c3ccc(F)cc3)CC2)cc1,7.5%
7,CCOC(=O)C1(Cc2ccc(OC)cc2)CCN(C(=O)[C@@H]2CCCN2C(C)=O)CC1,3.8%
8,CC(=O)NCC(=O)N1CCOC(CCCc2ccccc2)C1 (centres undefined),2.6%
9,O=C(Cc1ccsc1)N(CC1CCN(C2CCCC2)CC1)CC1CCCO1 (centres undefined),2.6%
10,COc1cc(CN(C)Cc2csc(C)n2)ccc1OCC(O)CN(C)C(C)C (centres undefined),inactive: -0.4%
11,O=C1CCC(C(=O)N2CCOC(Cc3ccccc3Cl)C2)=NN1 (centres undefined),0.8%
12,O=C(c1cn[nH]c1)N1CCCC(CCc2ccc(F)cc2F)C1 (centres undefined),7.5%
13,COc1ccc(CN2CCN(CC=C(C)C)C(CCO)C2)c(OC)c1C (centres undefined),inactive: -1.3%
14,COc1ccccc1/C=C/CN1CCNC(=O)C1CC(=O)NCCOc1cccnc1 (centres undefined),inactive: -2%
15,O=C(Nc1ccccc1Br)c1ccccc1[N+](=O)[O-],1.2%
16,O=C1N(CC2CC2)CCCC12CCN(Cc1cccn1-c1cccnc1)C2 (centres undefined),2.6%
17,CC(C)CNC1CCCc2nc(N(C)C)ncc21 (centres undefined),10.6%
18,COc1cc(CNCc2ccccc2)c(Cl)cc1OCCO,0.3%
19,CC(NCc1c(C(=O)N2CCCC2)nc2sccn12)c1ccccc1Cl (centres undefined),inactive: -3.8%
20,CSCCC(=O)N1CCC2(CCCN(CCc3ccccc3)C2=O)C1 (centres undefined),5.3%
21,COc1ccc(C(=O)N2CCOC(Cc3ccccc3)C2)o1 (centres undefined),inactive: -3.8%
22,Cc1nc(NCC2(c3cccc(F)c3)CCOC2)nn1C(C)C (centres undefined),0.3%

# Filtered by structure, those above containing a tert-butyl group
row,Compound,activity
9,CC(C)(C)CN1CC(NC(=O)C2CCOCC2)CC1=O (centres undefined),12.4%
10,CC(C)(C)CN1CCCC2(CCN(CCCn3cccn3)C2)C1=O (centres undefined),5.1%
5,Cc1cnn(Cc2ccc(F)cc2)c1NC(=O)Cn1nnc(C(C)(C)C)n1,1.9%

# (listing goes on)

row,Compound,activity
1,COc1ccc(CNCCn2cccn2)c(OCC(O)CN2CCCC2)c1 (centres undefined),1.2%
2,COC(=O)c1ccc(CNCc2cccc(OCC(O)CN3CCOCC3)c2)cc1 (centres undefined),inactive: -2.2%
3,O=C(NC1CCCN(Cc2ccccc2F)C1)c1cc2ccccc2oc1=O (centres undefined),inactive: -4.4%
4,CCn1cc(-c2nc(-c3ccccn3)no2)cn1,active: 44.4%
5,Cc1ccccc1OCC(O)CNC1CCCCC1 (centres undefined),inactive: -14.2%
6,NC(=O)c1cccnc1N1CCOC(Cc2ccccc2)C1 (centres undefined),4.2%
7,O=C(Nc1ccc(-c2nc3ccccc3[nH]2)cc1)c1ccccn1,5.8%
8,Fc1ccc(CN2CCCC3(CCN(CC4CC4)C3)C2)cc1 (centres undefined),inactive: -2.1%
9,CC(C)c1ccc(NC2CCCN(C(=O)c3ccnn3C)C2)cc1 (centres undefined),7.1%
10,O=C(O)c1cn(CCOc2ccccc2)c2ccccc12,inactive: -13.2%
11,COc1ccccc1N1CCN(C2CCCN(Cc3cccc4nonc34)C2)CC1 (centres undefined),9%
12,c1ccc(Cc2nn3c(-c4cccs4)nnc3s2)cc1,inactive: -5.3%
13,CCOc1ccc(CN2CCNC(=O)C2CC(=O)NCCn2ccc3ccccc32)cc1 (centres undefined),inactive: -0.9%
14,O=C(CCc1cccs1)N1CCc2[nH]nc(/C=C/c3ccccc3)c2C1,3.1%
15,CN(Cc1ccsc1)Cc1cnc(S(=O)(=O)CC2CC2)n1CC1CCCO1 (centres undefined),inactive: -1.5%
16,O=C(CC1C(=O)NCCN1Cc1ccccn1)NC1C2CC3CC(C2)CC1C3 (centres undefined),inactive: -4.8%
17,CN(C(=O)c1cn(Cc2cccc3ccccc23)nn1)C1CCOC1 (centres undefined),inactive: -1.3%
18,CC(C)CCCC1CN(C(=O)Cc2cccnc2)CCO1 (centres undefined),3%
19,C=Cc1ccc(C(=O)N2CCOC(Cc3cccc(OC)c3)C2)cc1 (centres undefined),2.1%
20,CCN1CCN(c2ncc3c(n2)CC(c2ccc(OC)c(OC)c2)CC3=O)CC1 (centres undefined),inactive: -19%
21,CCOC(=O)N1CCN(C2CCCN(C(=O)c3cc(C(C)C)no3)C2)CC1 (centres undefined),10.8%
